From the supplement of paper PMC8326762, “A Small Molecule Inhibitor of Pex3–Pex19 Interaction Disrupts Glycosome Biogenesis and Causes Lethality in Trypanosoma brucei” (Frontiers in Cell and Developmental Biology, 2021)
Where a name gives a salt, the structure may show the parent alone. The list shows a part of the results. The data scatter; read single values as rough.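 Yeast growth was read as optical density at 600 nm. The two-hybrid strains grew without histidine, so growth needed the Pex3–Pex19 binding; a compound counted as trypanosome-selective if it cut growth of the trypanosome-pair strain by more than 65% and the human-pair strain by less than 65%.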

System: T. brucei Pex3-Pex19 interaction (yeast two-hybrid)
Experiment: growth inhibition of yeast two-hybrid strain reporting TbPex3-TbPex19 interaction, relative to DMSO; higher = stronger inhibition of T. brucei Pex3-Pex19 interaction / growth
Details: 100 µM; 24 h

Compound	growth inhibition [%]
O=c1[nH]cc(F)c(=O)[nH]1 [5-Fluorouracil]	62.8
COc1cccc(C(=O)NCCN2CCN(c3ccc(Cl)cc3)CC2)c1	58.6
NC[C@@H]1O[C@H](c2ccccc2)Cc2c1ccc(O)c2O	68.9
CC#CCOC(=O)c1c(C)nc2sc3c(c2c1N)CCC(O)C3 (centres undefined)	56.4
CN(C)CCC(c1ccc(Cl)cc1)c1ccccn1 (single isomer, unassigned; (+)) [(+)-Chlorpheniramine maleate]	63.2
C[C@H](CS)C(=O)N1CCC[C@H]1C(=O)O [Captopril]	45.4
O=C(O)CCC(C(=O)O)N1C(=O)c2ccccc2C1=O [L-Glutamic acid, N-phthaloyl-]	38.5
COc1cc(Nc2c(C#N)cnc3cc(OCCCN4CCN(C)CC4)c(OC)cc23)c(Cl)cc1Cl [Bosutinib]	50
CN1[C@@H]2CC[C@H]1CC(OC(=O)c1c[nH]c3ccccc13)C2 (some centres undefined) [3-Tropanyl-indole-3-carboxylate hydrochloride]	59.5
COc1cc2c(cc1OC)-c1c/c(=N\c3c(C)cc(C)cc3C)n(C)c(=O)n1CC2 [Trequinsin hydrochloride]	64
NCCCCCC(=O)O [6-Aminohexanoic acid]	33.5
O=C(O)CN(CCN(CC(=O)O)CC(=O)O)CCN(CC(=O)O)CC(=O)O [Diethylenetriaminepentaacetic acid]	60.4
Cc1ccc(S(=O)(=O)/C=C/C#N)cc1	84.9
O=C(O)CN(CCOCCOCCN(CC(=O)O)CC(=O)O)CC(=O)O	57.8
NC(C(=O)O)C(O)C(=O)O (racemic) [DL-threo-beta-hydroxyaspartic acid]	54.6
COCCOc1cc2ncnc(Cl)c2cc1OCCOC	65.6
COc1ccccc1N1CCN(CCN(C(=O)c2ccc(F)cc2)c2ccccn2)CC1 [p-MPPF dihydrochloride]	65.4
c1ccc2c(c1)CC(N1CCN(c3cccc4c3OCCO4)CC1)C2	29.9
Nc1cc2c(ncn2CCOCP(=O)(O)O)c(=O)[nH]1 [PMEG hydrate]	72.1
O=C1Cc2c([nH]c3ccc(Br)cc23)-c2ccccc2N1 [Kenpaullone]	16.8

Compound	growth inhibition [%]
CC(=O)Oc1cc(C(F)(F)F)ccc1C(=O)O [Triflusal]	69.9
CN1[C@@H]2CC[C@H]1C[C@@H](OC(c1ccccc1)c1ccccc1)C2 [Benztropine mesylate]	64.2
O=C(O)CCc1ccc(NCc2cccc(Oc3ccccc3)c2)cc1	78.2
COC(=O)C1=C(C)NC(C)=C([N+](=O)[O-])C1c1ccccc1C(F)(F)F (racemic)	56.3
O=C(/C=C/c1ccc(O)cc1)c1ccc(O)cc1O [Isoliquiritigenin]	32.8
O=C(c1ccc(OCCCc2c[nH]cn2)cc1)C1CC1 [Ciproxifan hydrochloride]	57
CC(=O)OCC(=O)[C@@]1(O)CC[C@H]2[C@@H]3CCC4=CC(=O)CC[C@]4(C)[C@H]3C(=O)C[C@@]21C [Cortisone 21-acetate]	50
N[C@H](C(=O)O)[C@H](O)c1ccc(O)c(O)c1	66.9
S=C(Nc1ccccc1)Nc1nccs1 [1-Phenyl-3-(2-thiazolyl)-2-thiourea]	61.3
CCOC(=O)[C@@H](N)Cc1ccc(O)c(O)c1 [L-Dopa ethyl ester]	61.2
CC(C)NCC(O)COc1ccc(CC(N)=O)cc1 (racemic) [(±)-Atenolol]	55
NC(=O)c1cn(Cc2c(F)cccc2F)nn1 [Rufinamide]	59
CC1=C(/C=C/C(C)=C/C=C/C(C)=C/C=C/C=C(C)/C=C/C=C(C)/C=C/C2=C(C)C(=O)[C@@H](O)CC2(C)C)C(C)(C)C[C@H](O)C1=O [Astaxanthin]	47.5
O=[N+]([O-])c1cccc2c(Br)[nH]nc12 [3-Bromo-7-nitroindazole]	48.3
CC(=O)[C@@]1(O)CC[C@H]2[C@@H]3CCC4=CC(=O)CC[C@]4(C)[C@H]3CC[C@@]21C [17alpha-hydroxyprogesterone]	48
CCOC(=O)C1=C(C)NC(C)=C(C(=O)OC)C1c1cccc([N+](=O)[O-])c1 (centres undefined) [Nitrendipine]	76.2
Nc1nc2ccc(Cl)cc2n2c(-c3ccccc3)nnc12	57.1
CC(=O)SCC[N+](C)(C)C [Acetylthiocholine chloride]	63.3
Nc1ncnc2c1ncn2C1CCCC1 [9-cyclopentyladenine]	67.1

Three structures out of the list, arranged by length of the SMILES, descending:
Compound	growth inhibition [%]
COc1cc(Nc2c(C#N)cnc3cc(OCCCN4CCN(C)CC4)c(OC)cc23)c(Cl)cc1Cl [Bosutinib]	50
COc1ccccc1N1CCN(CCN(C(=O)c2ccc(F)cc2)c2ccccn2)CC1 [p-MPPF dihydrochloride]	65.4
Nc1nc2ccc(Cl)cc2n2c(-c3ccccc3)nnc12	57.1
